Laboratory results: US10098949B2, “Adsorption of immunopotentiators to insoluble metal salts” (GlaxoSmithKline Biologicals SA, priority 2010, dated 2018)
At least one compound was matched to its structure with a doubt left. Some of these results come from one statement about several compounds together.

Assay: Adsorption to aluminium hydroxide (Al—H) adjuvant, supernatant by HPLC
Format: physicochemical
Conditions: for Binding to Al—H: 100 mM histidine buffer at pH 6.5

**Q.** With `COCCOc1nc(N)c2nc(O)n(Cc3ccc(CP(=O)(O)O)cc3)c2n1` [Compound 6, (4-((6-amino-2-(2-methoxyethoxy)-8-oxo-7H-purin-9(8H)-yl)methyl)benzyl)phosphonic Acid] as the compound, how does the “% adsorption to Al—H” value (10 mM histidine buffer, pH 6.5) read?
**A.** 88%

**Q.** With `CCCCCCCCCCCC(=O)OC[C@H](CSC[C@H](N)C(=O)NCCOCCP(=O)(O)O)OC(=O)CCCCCCCCCCC` [Compound 17, ((8R,12R)-8-amino-12-(dodecanoyloxy)-7,15-dioxo-3,14-dioxa-10-thia-6-azahexacosyl)phosphonic acid] as the compound, how does the “Binding to Al—H” value read?
**A.** > 80%

**Q.** Which “Binding to Al—H” value does the source give for `CCCCCCCCCCCC(=O)OC[C@H](CSC[C@H](N)C(=O)NCCOCCOCCP(=O)(O)O)OC(=O)CCCCCCCCCCC` [Compound 19, ((11R,15R)-1-amino-15-(dodecanoyloxy)-10,18-dioxo-3,6,17-trioxa-13-thia-9-azanonacosyl)phosphonic acid] here?
**A.** > 80%

**Q.** Which “Binding to Al—H” value does the source give for `CCCCCCCCCCCC(=O)OC[C@H](CSC[C@H](N)C(=O)NC1(COCCCP(=O)(O)O)CC1)OC(=O)CCCCCCCCCCC` [Compound 22, (3-((1-((R)-2-amino-3-(((R)-2,3-bis(dodecanoyloxy)propyl)thio)propanamido)cyclopropyl)methoxy)propyl)phosphonic acid] here?
**A.** > 80%
